Measurements from patent US20140242606A1, “PROBE FOR iFRET AND USE THEREOF” (KOREA RESEARCH INSTITUTE OF BIOSCIENCE AND BIOTECHNOLOGY, priority 2011, published 2014).
At least one compound was matched to its structure with a doubt left.

Test: Fluorescence characterization of fluorescent molecules (excitation and emission wavelengths)
Type: physicochemical
Details: fluorescent molecule, Table 1
From the text: 1-Naphthylethylenediamine of Chemical Formula I can be effectively detected by LED (light-emitting diode), and used as a fluorescent probe. In addition, because this compound has an excitation wavelength of 340 nm to 380 nm and an emission wavelength of 400 nm to 600 nm, it has longer emission wavelength than the known fluorophores, and therefore, it can be detected as a fluorescent molecule distinct from the cellular autofluorescence.
The excitation and emission wavelengths of the fluorescent molecules of the present invention, that is, the compounds represented by Chemical Formulae I to XXII are described in Table 1, and graphs showing the fluorescent characteristics thereof are given in FIGS. 3 to 15.

In the case of `O=C(O)Cc1cc(=O)oc2cc(O)ccc12` [Chemical Formula XII, hydroxycumarin acetic acid], the “Emission wavelength (nm)” value is reported as 460 nm and the “Excitation wavelength (nm)” value is reported as 330 nm.
